One substance from PMC11066113 can be followed below.

Amino acid sequences for entries named in this document (tags omitted). A change or cut given only in a name is not applied to a line headed by its entry. Residues count along the entry.
UniProt O60602, residues 21-639: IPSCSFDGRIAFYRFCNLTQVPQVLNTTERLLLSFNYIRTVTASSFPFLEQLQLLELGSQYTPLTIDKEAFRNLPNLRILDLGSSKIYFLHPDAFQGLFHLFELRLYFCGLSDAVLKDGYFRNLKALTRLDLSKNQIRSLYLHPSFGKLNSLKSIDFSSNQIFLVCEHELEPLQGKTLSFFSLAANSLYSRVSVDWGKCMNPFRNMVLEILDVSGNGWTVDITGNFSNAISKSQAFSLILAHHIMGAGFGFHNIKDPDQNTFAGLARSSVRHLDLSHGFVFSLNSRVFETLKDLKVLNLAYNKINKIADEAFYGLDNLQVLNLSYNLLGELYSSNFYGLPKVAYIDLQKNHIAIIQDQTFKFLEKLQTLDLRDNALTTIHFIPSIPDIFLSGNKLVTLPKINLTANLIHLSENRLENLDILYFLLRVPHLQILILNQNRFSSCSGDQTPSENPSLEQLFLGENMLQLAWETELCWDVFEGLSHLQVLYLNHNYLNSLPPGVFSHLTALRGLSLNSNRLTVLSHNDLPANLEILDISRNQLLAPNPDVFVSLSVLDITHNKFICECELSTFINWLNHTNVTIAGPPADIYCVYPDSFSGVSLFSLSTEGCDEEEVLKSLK
UniProt Q6R5P0, residues 31-721: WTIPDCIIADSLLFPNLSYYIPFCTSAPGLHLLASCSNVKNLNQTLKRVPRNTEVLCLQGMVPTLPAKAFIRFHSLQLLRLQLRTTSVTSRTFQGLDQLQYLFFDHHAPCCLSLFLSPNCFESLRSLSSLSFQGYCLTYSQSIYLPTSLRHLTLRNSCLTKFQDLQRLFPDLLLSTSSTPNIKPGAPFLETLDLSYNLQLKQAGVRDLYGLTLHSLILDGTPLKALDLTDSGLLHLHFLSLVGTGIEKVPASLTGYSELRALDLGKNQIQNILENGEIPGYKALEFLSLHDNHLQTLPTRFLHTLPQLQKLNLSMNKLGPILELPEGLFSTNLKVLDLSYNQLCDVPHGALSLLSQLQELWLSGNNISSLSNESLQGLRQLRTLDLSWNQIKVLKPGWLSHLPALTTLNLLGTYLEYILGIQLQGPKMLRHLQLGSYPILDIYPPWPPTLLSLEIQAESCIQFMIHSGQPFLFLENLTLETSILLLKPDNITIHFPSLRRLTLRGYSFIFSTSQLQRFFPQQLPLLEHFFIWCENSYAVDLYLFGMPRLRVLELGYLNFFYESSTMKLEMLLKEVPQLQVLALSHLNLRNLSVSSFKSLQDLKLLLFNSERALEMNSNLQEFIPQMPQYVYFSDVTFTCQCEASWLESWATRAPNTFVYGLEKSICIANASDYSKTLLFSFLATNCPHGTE
UniProt Q9QUK6, residues 26-638: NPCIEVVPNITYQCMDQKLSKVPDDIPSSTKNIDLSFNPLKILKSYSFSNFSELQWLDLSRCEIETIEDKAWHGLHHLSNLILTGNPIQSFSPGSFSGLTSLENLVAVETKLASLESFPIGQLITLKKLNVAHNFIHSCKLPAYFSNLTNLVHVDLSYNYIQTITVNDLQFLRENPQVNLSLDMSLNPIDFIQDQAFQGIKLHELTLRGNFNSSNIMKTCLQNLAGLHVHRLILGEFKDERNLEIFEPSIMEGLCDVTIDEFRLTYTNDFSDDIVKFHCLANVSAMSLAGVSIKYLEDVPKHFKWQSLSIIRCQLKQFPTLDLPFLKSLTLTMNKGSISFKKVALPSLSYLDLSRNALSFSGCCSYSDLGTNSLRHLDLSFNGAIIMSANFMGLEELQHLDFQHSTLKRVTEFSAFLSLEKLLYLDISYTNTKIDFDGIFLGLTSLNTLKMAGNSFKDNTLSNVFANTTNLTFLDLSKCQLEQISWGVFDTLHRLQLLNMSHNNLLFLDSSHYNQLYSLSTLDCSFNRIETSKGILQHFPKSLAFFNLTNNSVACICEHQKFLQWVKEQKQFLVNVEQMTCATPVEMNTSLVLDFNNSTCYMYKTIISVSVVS
UniProt Q172F2: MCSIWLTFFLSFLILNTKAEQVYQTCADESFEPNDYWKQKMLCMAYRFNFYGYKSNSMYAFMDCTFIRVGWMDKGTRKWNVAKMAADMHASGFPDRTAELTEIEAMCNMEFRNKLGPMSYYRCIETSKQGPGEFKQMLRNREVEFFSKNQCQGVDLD

Assay in all cases: co-IP; lysate of HEK293T cells transfected with a Myc-tagged TLR ECD incubated with 80 ng purified V5-tagged AaNRP at 4 °C, precipitated with anti-Myc tag antibody (magnetic beads), five washes with IP lysis buffer, blots for V5 and Myc; only the binder purified
The target of experiment [1] is human TLR5 extracellular domain (human) (UniProt O60602).
The target of experiment [2] is T1, murine Toll-like receptor 1 extracellular domain (mouse) (UniProt Q9EPQ1).
T1 sequence: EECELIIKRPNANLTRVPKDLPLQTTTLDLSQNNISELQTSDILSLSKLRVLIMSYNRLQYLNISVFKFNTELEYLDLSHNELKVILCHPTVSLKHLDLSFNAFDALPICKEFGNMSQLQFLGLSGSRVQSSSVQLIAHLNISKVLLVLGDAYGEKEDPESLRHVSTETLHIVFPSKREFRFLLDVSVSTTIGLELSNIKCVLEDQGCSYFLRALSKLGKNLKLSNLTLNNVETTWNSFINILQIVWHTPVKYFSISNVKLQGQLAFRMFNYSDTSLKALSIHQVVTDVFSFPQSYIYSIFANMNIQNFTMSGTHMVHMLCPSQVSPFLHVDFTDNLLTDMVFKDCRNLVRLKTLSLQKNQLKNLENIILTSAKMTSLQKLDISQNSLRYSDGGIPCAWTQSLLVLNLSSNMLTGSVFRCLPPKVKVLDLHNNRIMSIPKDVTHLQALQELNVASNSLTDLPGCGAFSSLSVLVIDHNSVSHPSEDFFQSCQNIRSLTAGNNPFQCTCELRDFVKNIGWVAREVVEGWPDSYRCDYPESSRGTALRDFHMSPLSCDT

Experiment [3] has as its target murine Toll-like receptor 11 extracellular domain (mouse) (UniProt Q6R5P0).
The target in experiment [4] is T2, murine Toll-like receptor 2 extracellular domain (mouse) (UniProt Q9QUN7).
T2 sequence: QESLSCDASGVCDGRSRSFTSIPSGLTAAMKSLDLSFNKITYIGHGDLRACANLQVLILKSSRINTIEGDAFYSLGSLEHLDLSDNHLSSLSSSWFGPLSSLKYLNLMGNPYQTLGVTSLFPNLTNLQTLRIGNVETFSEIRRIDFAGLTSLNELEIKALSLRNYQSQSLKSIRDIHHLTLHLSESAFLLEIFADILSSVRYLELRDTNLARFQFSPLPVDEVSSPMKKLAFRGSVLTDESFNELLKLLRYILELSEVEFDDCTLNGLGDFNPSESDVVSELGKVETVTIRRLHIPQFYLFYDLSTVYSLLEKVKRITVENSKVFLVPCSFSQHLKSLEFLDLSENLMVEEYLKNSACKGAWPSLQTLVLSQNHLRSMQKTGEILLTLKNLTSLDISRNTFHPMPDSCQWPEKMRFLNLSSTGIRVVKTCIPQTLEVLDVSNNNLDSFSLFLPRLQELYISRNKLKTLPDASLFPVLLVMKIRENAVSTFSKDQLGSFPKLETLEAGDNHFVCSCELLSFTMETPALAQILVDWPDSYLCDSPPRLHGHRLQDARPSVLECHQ

Experiment [5] concerns the target murine Toll-like receptor 4 extracellular domain (mouse) (UniProt Q9QUK6).
Experiment [6] has as its target T3, murine Toll-like receptor 6 extracellular domain (mouse) (UniProt Q9EPW9).
T3 sequence: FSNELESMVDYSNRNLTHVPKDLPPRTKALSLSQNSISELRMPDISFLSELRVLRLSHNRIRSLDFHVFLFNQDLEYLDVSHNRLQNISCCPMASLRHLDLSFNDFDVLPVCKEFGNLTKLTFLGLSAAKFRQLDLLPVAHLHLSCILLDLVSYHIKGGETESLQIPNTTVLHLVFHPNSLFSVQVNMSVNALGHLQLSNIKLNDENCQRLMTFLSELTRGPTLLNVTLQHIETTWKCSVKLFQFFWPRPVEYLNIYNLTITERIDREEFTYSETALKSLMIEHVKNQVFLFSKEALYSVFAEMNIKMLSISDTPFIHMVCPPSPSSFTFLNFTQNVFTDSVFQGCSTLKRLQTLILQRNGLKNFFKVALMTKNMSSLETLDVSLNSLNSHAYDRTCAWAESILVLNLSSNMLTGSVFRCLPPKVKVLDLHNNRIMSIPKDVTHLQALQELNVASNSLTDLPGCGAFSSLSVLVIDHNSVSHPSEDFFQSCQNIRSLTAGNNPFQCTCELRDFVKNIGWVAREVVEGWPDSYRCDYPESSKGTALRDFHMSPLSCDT

These are yes or no findings as the source states them, for the method shown. In cells and extracts the contact can be indirect. For part of these data: Binding calls can cover weak binding; strength is not graded here.

With “A. aegypti Neutrophil Recruitment Protein (AaNRP) (from UniProt Q172F2)”, the binding result in experiment [1] is given as “no binding (tested: 80 ng of purified AaNRP)”; in experiment [2] it was “binds”; in experiment [3], “no binding (tested: 80 ng of purified AaNRP)”; in experiment [4] it was “no binding (tested: 80 ng of purified AaNRP)”; in experiment [5], “binds”; in experiment [6], “no binding (tested: 80 ng of purified AaNRP)”.
